Assay in all cases: two-hybrid; GAL4(DB) fusion and GAL4(AD) fusion cotransformed into the wild-type tester strain GGY1::171; X-Gal colony colour on SSX plates, 30°C; pairs said to be unaffected were also tested in upf1Δ, pat1Δ, scd6Δ, edc3Δ or dcp2-N245 derivatives
Test [1] has as its target Dcp2 LD1-7 (leucine-rich motifs L1 to L7 deleted) (S. cerevisiae) (UniProt P53550).
Test [2] deals with Dcp2 LD9-3 (leucine-rich motifs L9 to L3 deleted) (S. cerevisiae) (UniProt P53550).
For test [3], the target named is Dcp2 LD9-4 (leucine-rich motifs L9 to L4 deleted) (S. cerevisiae) (UniProt P53550).
The target of test [4] is Dcp2 ID (inhibitory element IE deleted) (S. cerevisiae) (UniProt P53550).
In test [5] the target is Dcp2 E3D-U1D2-LD1-9 (S. cerevisiae) (UniProt P53550).
Test [6] has as its target Dcp2 LD1-4 (leucine-rich motifs L1 to L4 deleted) (S. cerevisiae) (UniProt P53550).
For test [7], the target named is Dcp2 LD1-9 (all nine leucine-rich motifs L1 to L9 deleted) (S. cerevisiae) (UniProt P53550).
Test [8] addresses Dcp2 E3D (Edc3-binding motif E3 deleted) (S. cerevisiae) (UniProt P53550).
For test [9], the target named is Dcp2 LD9-2 (leucine-rich motifs L9 to L2 deleted) (S. cerevisiae) (UniProt P53550).
The target of test [10] is Dcp2 E3D1-U1D2-LD1-9 (S. cerevisiae) (UniProt P53550).
The target in test [11] is Dcp2 LD1-8 (leucine-rich motifs L1 to L8 deleted) (S. cerevisiae) (UniProt P53550).
The target of test [12] is Dcp2 U1D1-U1D2 (both Upf1-binding motifs deleted) (S. cerevisiae) (UniProt P53550).
For test [13], the target named is Dcp2 LD1-5 (leucine-rich motifs L1 to L5 deleted) (S. cerevisiae) (UniProt P53550).
Test [14] deals with Dcp2 U1D1 (first Upf1-binding motif U1_1 deleted) (S. cerevisiae) (UniProt P53550).
In test [15] the target is Dcp2 LD1-6 (leucine-rich motifs L1 to L6 deleted) (S. cerevisiae) (UniProt P53550).
Test [16] addresses Dcp2 LD9-6 (leucine-rich motifs L9 to L6 deleted) (S. cerevisiae) (UniProt P53550).
Test [17] concerns the target Dcp2 U1D2 (second Upf1-binding motif U1_2 deleted) (S. cerevisiae) (UniProt P53550).
Test [18] deals with Dcp2 E3D1-U1D1-LD1-9 (S. cerevisiae) (UniProt P53550).
For test [19], the target named is Dcp2 E3D-U1D1-LD1-9 (S. cerevisiae) (UniProt P53550).

Chains of the proteins cited; added tags and fusions are not shown. Lines headed by an entry give the natural chain unless they say otherwise; changes in a name come on top.
UniProt P53550: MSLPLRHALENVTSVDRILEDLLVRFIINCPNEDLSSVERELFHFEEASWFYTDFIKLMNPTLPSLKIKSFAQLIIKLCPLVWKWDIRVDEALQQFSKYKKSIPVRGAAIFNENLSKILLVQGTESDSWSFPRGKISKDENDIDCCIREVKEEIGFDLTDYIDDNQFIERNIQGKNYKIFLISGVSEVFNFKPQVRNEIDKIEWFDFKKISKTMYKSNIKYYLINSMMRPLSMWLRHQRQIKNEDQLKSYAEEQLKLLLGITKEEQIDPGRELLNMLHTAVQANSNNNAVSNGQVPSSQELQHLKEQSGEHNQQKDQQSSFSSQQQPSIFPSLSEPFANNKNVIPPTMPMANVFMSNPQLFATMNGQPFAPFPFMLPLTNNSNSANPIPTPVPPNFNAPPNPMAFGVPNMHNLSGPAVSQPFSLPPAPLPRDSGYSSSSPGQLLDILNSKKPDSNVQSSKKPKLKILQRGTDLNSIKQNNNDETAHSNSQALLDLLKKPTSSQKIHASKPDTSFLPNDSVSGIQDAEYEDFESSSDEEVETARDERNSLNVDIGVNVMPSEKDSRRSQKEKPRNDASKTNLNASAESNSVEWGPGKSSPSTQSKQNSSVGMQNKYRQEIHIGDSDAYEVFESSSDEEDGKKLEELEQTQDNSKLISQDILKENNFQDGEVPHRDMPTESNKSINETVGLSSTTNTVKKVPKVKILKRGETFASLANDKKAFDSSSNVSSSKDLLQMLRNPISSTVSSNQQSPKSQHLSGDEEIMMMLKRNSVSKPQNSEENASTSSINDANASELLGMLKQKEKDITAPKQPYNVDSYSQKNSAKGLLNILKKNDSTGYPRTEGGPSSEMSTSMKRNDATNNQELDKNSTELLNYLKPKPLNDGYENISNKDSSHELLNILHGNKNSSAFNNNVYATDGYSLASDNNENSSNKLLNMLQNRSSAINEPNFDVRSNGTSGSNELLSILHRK

Results are given in words; binding and its absence hold for the method and conditions named. For some of these results: A result given as binding can be weak or reduced; the word gives no strength.

B1: Upf1 (protein, UniProt P30771 1-971)
chain: MVGSGSHTPYDISNSPSDVNVQPATQLNSTLVEDDDVDNQLFEEAQVTETGFRSPSASDNSCAYCGIDSAKCVIKCNSCKKWFCNTKNGTSSSHIVNHLVLSHHNVVSLHPDSDLGDTVLECYNCGRKNVFLLGFVSAKSEAVVVLLCRIPCAQTKNANWDTDQWQPLIEDRQLLSWVAEQPTEEEKLKARLITPSQISKLEAKWRSNKDATINDIDAPEEQEAIPPLLLRYQDAYEYQRSYGPLIKLEADYDKQLKESQALEHISVSWSLALNNRHLASFTLSTFESNELKVAIGDEMILWYSGMQHPDWEGRGYIVRLPNSFQDTFTLELKPSKTPPPTHLTTGFTAEFIWKGTSYDRMQDALKKFAIDKKSISGYLYYKILGHQVVDISFDVPLPKEFSIPNFAQLNSSQSNAVSHVLQRPLSLIQGPPGTGKTVTSATIVYHLSKIHKDRILVCAPSNVAVDHLAAKLRDLGLKVVRLTAKSREDVESSVSNLALHNLVGRGAKGELKNLLKLKDEVGELSASDTKRFVKLVRKTEAEILNKADVVCCTCVGAGDKRLDTKFRTVLIDESTQASEPECLIPIVKGAKQVILVGDHQQLGPVILERKAADAGLKQSLFERLISLGHVPIRLEVQYRMNPYLSEFPSNMFYEGSLQNGVTIEQRTVPNSKFPWPIRGIPMMFWANYGREEISANGTSFLNRIEAMNCERIITKLFRDGVKPEQIGVITPYEGQRAYILQYMQMNGSLDKDLYIKVEVASVDAFQGREKDYIILSCVRANEQQAIGFLRDPRRLNVGLTRAKYGLVILGNPRSLARNTLWNHLLIHFREKGCLVEGTLDNLQLCTVQLVRPQPRKTERPMNAQFNVESEMGDFPKFQDFDAQSMVSFSGQIGDFGNAFVDNTELSSYINNEYWNFENFKSAFSQKQNRNEIDDRNLYQEEASHLNSNFARELQREEQKHELSKDFSNLGI
On to B1, for which the binding result in test [1] was “binds”; in test [2], “binds”; in [3] it was “binds”; in test [4] it was “binds”; in [5], “no binding”; in [6], “binds”. In addition, the binding result is given as “binds” in test [7]; “binds” in [8]; “binds” in [9]; “no binding” in test [10]; “binds” in test [11]; “no binding” in test [12]. In addition, the binding result is given as “binds” in test [13]; “binds” in [14]; “binds” in [15]; “binds” in test [16]; “binds” in test [17]; “no binding” in test [18]. In [19], the binding entry was “no binding”.

Source of the values: PMC9170289.
